Values quoted from earlier work, collected in patent publication US10251814B2, “Cefuroxime safety delivery system” (CIS PHARMA AG, priority 2011, dated 2019).
At least one compound was matched to its structure with a doubt left.

Tested on: endophthalmitis
Details: 16,603 patients; cefuroxime 1 mg in 0.1 ml normal saline intracameral at end of surgery; levofloxacin drops prior and subsequent to surgery

C[C@H]1COc2c(N3CCN(C)CC3)c(F)cc3c(=O)c(C(=O)O)cn1c23 [Levofloxacin, levofloxacin]
reduction of the risk for endophthalmitis: essentially without effect
